PubChem BioAssay AID504805 – Drosophila RNAi Screening Center, 2011

Test: 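Fly genes required for export of polyadenylated mRNA from the nucleus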 (primary screen)
System: Drosophila S2R+ cells
Reagents: long dsRNA against Drosophila genes, 0.25 µg dsRNA per well
Duration: 4 days
Detection: 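Poly(A) RNA detected by in situ hybridisation with a fluorescent oligo-dT probe, nuclei stained with a DNA dye; images judged by eye, phenotype noted per replicate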
The reagents shown are a selection, not the whole library. 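Phenotypes are words from visual inspection of images, not measured scores.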 Reagent sequences are not shown.

gene | amplicon | phenotype, replicate 1 | phenotype, replicate 2
5-HT1B (GeneID 37191) | DRSC05769 | poly(A) RNA held back in the nucleus | poly(A) RNA held back in the nucleus
Spx (GeneID 31558) | DRSC18720 | poly(A) RNA held back in the nucleus | –
SmD3 (GeneID 36306) | DRSC07553 | poly(A) RNA held back in the nucleus | poly(A) RNA held back in the nucleus
Ts (GeneID 33499) | DRSC22168 | poly(A) RNA held back in the nucleus | –
CG42258 (GeneID 32196) | DRSC23161 | poly(A) RNA held back in the nucleus | –
Alg14 (GeneID 32479) | DRSC19983 | poly(A) RNA held back in the nucleus | –
Hr78 (GeneID 40378) | DRSC11866 | poly(A) RNA held back in the nucleus | –
CG8191 (GeneID 32511) | DRSC20091 | poly(A) RNA held back in the nucleus | –
Roc1a (GeneID 31014) | DRSC18483 | poly(A) RNA held back in the nucleus | –
CG12054 (GeneID 43694) | DRSC14467 | poly(A) RNA held back in the nucleus | –
CG5466 (GeneID 42444) | DRSC15808 | poly(A) RNA held back in the nucleus | poly(A) RNA held back in the nucleus
CG9624 (GeneID 41730) | DRSC16523 | poly(A) RNA held back in the nucleus | –
Nxt1 (GeneID 37769) | DRSC04630 | poly(A) RNA held back in the nucleus | poly(A) RNA held back in the nucleus
stretch (retired record) (GeneID 46211) | DRSC14543 | poly(A) RNA held back in the nucleus | –
CG14441 (GeneID 31611) | DRSC17934 | poly(A) RNA held back in the nucleus | –
RpL23 (GeneID 37628) | DRSC04648 | poly(A) RNA held back in the nucleus | –
Atf3 (GeneID 43867) | DRSC17225 | poly(A) RNA held back in the nucleus | –
bab1 (GeneID 38116) | DRSC08379 | poly(A) RNA held back in the nucleus | –
tipE (GeneID 38504) | DRSC08738 | poly(A) RNA held back in the nucleus | –
CG8850 (GeneID 36331) | DRSC07287 | poly(A) RNA held back in the nucleus | –
Gcn5 (GeneID 39431) | DRSC11248 | poly(A) RNA held back in the nucleus | –
Nup153 (GeneID 32630) | DRSC19904 | poly(A) RNA held back in the nucleus | poly(A) RNA held back in the nucleus
gt (GeneID 31227) | DRSC18782 | poly(A) RNA held back in the nucleus | –
CG2736 (GeneID 37998) | DRSC04314 | poly(A) RNA held back in the nucleus | –
CG5013 (GeneID 41951) | DRSC15695 | poly(A) RNA held back in the nucleus | –
Sf3b1 (GeneID 33235) | DRSC00535 | poly(A) RNA held in nucleus; cells rounded | poly(A) RNA held in nucleus; cells rounded
CG9646 (GeneID 36918) | DRSC07342 | poly(A) RNA held back in the nucleus | –
CG13130 (retired record) (GeneID 50439) | DRSC02226 | poly(A) RNA held back in the nucleus | –
CG13516 (GeneID 3885599) | DRSC04159 | poly(A) RNA held back in the nucleus | –
RpLP2 (GeneID 36855) | DRSC07539 | poly(A) RNA held back in the nucleus | –
Cpr11A (GeneID 32198) | DRSC19861 | poly(A) RNA held back in the nucleus | –
CG31183 (GeneID 41927) | DRSC15554 | poly(A) RNA held back in the nucleus | –
Tpst (GeneID 32312) | DRSC19696 | poly(A) RNA held back in the nucleus | –
pyd (GeneID 41062) | DRSC16548 | poly(A) RNA held back in the nucleus | –
Sgs4 (GeneID 31304) | DRSC18715 | poly(A) RNA held back in the nucleus | –
CG17260 (GeneID 33519) | DRSC00497 | poly(A) RNA held back in the nucleus | –
Cdk12 (GeneID 40385) | DRSC11836 | poly(A) RNA held back in the nucleus | –
RPA1 (GeneID 40972) | DRSC16830 | poly(A) RNA held back in the nucleus | –
pch2 (GeneID 41013) | DRSC14368 | poly(A) RNA held back in the nucleus | –
CG34280 (GeneID 5740878) | DRSC13229 | poly(A) RNA held back in the nucleus | –
ImpE1 (GeneID 45879) | DRSC11196 | poly(A) RNA held back in the nucleus | –
crn (GeneID 31208) | DRSC18184 | poly(A) RNA held back in the nucleus | –
Sry-alpha (GeneID 43571) | DRSC16867 | poly(A) RNA held back in the nucleus | –
